This note sets out measurements from publication PMC9103898.

No constants are given. Whether binding was seen depends on the method and setting. Binding seen in cells or lysates may run through a third protein. Some binding calls cover weakened binding; strength is not graded here. Tags and fused reporters may be left off the sequences shown.

In one assay the target is T1, GST::14-3-3f (rice) (UniProt Q06967).
T1 sequence: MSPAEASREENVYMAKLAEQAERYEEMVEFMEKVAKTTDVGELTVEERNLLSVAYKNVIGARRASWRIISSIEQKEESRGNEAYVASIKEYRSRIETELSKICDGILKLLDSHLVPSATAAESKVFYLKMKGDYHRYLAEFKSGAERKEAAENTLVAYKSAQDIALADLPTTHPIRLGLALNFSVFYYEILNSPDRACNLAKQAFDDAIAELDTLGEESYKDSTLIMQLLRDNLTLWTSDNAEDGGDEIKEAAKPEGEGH
As to the kind of experiment: pull-down; GST::14-3-3f bound to glutathione sepharose incubated with the His fusion protein at low temperature, rinsed with 1 x PBS, eluted with glutathione in Tris-HCl pH 8.0, Western blot with His and GST antibodies. A general note: Immunoblotting shows a protein as a band on a membrane.

For assay [1], the target named is T2, Lsi1-YFP-N (rice (Dular cDNA)) (UniProt Q6Z2T3).
T2 sequence: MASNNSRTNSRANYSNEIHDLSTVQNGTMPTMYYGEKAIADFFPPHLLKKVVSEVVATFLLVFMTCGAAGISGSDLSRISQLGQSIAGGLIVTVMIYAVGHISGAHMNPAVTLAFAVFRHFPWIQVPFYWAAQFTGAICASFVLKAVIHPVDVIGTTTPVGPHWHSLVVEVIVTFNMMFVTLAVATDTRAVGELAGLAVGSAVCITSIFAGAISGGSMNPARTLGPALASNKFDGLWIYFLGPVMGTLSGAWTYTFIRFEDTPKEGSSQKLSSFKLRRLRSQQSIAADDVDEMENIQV
The experiment in a line: split reporter; BiFC with eYFP halves (p2300-2YN, p2300-2YC) in Agrobacterium-infiltrated tobacco leaves, confocal microscopy after 48 h.

B1: His::Lsi1 (protein, UniProt Q6Z2T3 1-298)
chain: T2 sequence
Turning to B1, the binding result in the assay with GST::14-3-3f (rice) is reported as “binds”.

B2: 14-3-3f-YFP-C (protein, UniProt Q06967 1-260)
chain: T1 sequence
Regarding B2, the binding entry in assay [1] is given as “binds”.
